Results from patent US4857652A, “Chemiluminescent 1,2-dioxetane compounds” (priority 1988, dated 1989).
At least one structure is not confirmed: it was looked up by name or label, or the drawing left a doubt.

The chains behind the UniProt entries cited, without tags or fusion partners. A line that says so, or that is headed by a name, gives the form on record, which may keep a tag or linker.
UniProt P22303, other isoform, or with tags, fused parts or gaps: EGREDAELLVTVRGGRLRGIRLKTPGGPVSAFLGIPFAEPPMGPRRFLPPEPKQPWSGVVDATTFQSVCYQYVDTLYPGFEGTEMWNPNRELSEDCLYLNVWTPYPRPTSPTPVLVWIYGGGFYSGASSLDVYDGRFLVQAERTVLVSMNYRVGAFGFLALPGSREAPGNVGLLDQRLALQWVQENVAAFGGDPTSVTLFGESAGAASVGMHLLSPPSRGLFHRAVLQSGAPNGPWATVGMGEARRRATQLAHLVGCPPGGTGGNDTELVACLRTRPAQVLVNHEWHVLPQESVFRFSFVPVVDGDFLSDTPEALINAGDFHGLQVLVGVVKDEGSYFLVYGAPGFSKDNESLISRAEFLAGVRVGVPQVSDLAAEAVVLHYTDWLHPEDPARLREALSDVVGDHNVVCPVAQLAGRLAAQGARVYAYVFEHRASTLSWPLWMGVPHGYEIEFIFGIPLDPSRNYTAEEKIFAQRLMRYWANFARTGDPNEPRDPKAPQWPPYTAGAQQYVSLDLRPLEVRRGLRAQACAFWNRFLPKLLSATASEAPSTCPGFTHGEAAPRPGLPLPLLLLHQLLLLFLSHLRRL

Biological target: T1, Acetylcholinesterase from human erythrocytes (Homo sapiens, UniProt P22303)
T1 construct: purchased Sigma Chemical Co. C-3389; host or cells: human erythrocytes
Test: Enzymatic triggering of chemiluminescence with acetylcholinesterase
Assay type: biochemical
Conditions: phosphate buffer pH 8.0, 37° C.
Excerpt: Acetylcholinesterase, an enzyme of considerable biological significance, hydrolyzes acetylcholine to choline and acetic acid under physiological conditions. It was of interest to determine whether this enzyme would also initiate the chemiluminescent decomposition of the acetyl-protected dioxetane 2e by removal of the acetyl group. Acetylcholinesterase (C-3389) from human erythrocytes was purchased from Sigma Chemical Co. as a lyophilized powder containing phosphate buffer salts. […]. Addition of more dioxetane during this period generated more light.

CC(=O)OCC[N+](C)(C)C [acetylcholine, reference compound]
effect of native substrate on enzymatic chemiluminescent reaction of 2e: reversibly inhibited
